These results are taken from article PMC11087952, “Biochemical characterization of Escherichia coli DnaC variants that alter DnaB helicase loading onto DNA” (The Journal of Biological Chemistry, 2024).

For at least one entry, the source does not settle the construct or the ends of the probe. For some assays here: A weaker result is weaker than the reference pair of the same experiment. For some assays here: Tags and fusion partners may be left off the protein sequences shown.

Series [1] has as its target T1, DnaC 811 I184F (Escherichia coli) (UniProt P0AEF0).
T1 sequence (looked up, limits assumed): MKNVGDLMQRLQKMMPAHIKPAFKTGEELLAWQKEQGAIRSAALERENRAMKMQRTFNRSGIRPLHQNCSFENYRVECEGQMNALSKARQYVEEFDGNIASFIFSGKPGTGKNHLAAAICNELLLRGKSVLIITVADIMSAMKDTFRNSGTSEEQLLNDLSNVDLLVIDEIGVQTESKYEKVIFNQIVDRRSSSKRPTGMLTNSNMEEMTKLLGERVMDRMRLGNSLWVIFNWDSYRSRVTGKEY
The series is described as follows: fluorescence anisotropy. Particulars: 5 mM Mg2+, 2 mM ATP, slightly weakened vs wild-type; 50 mM HEPES-KOH pH 7.5, 125 mM KCl, 10% glycerol, 5 mM MgCl2, 2 mM ATP, 2 mM DTT, 0.1 mg/ml BSA, 10 nM DNA, 0-50 uM DnaC; 37 C 15 min, read at 25 C; recombinant protein; single-stranded DNA.

For series [2], the target named is DnaC 824 N255Y (Escherichia coli) (UniProt P0AEF0). Nature of the series: fluorescence anisotropy. Particulars: 5 mM Mg2+, 2 mM ATP, similar to wild-type; 50 mM HEPES-KOH pH 7.5, 125 mM KCl, 10% glycerol, 5 mM MgCl2, 2 mM ATP, 2 mM DTT, 0.1 mg/ml BSA, 10 nM DNA, 0-50 uM DnaC; 37 C 15 min, read at 25 C; recombinant protein; single-stranded DNA.

With TTTTTTTTTTTTTTTTTTTT [dT20], the binding result in series [1] was “binds more weakly”; in series [2], “binds”.
